# Source: PubChem BioAssay AID1458 (National Center for Advancing Translational Sciences (NCATS), 2008)
# Screen size: about 210,000 compounds; about 5,900 (2.8%) were called active. Not shown: some 5% with an inconclusive outcome. Calls follow the shape of the dose curve; as a rule, active = well fitted activation curve with a large enough effect; inconclusive = small, poorly fitted or top-dose-only effect; inactive = no such curve, though single readings can be large or run the other way. Only a part is listed here, and it is no random draw. Where no call is shown, the source filed none.
# Assay: qHTS Assay for Enhancers of SMN2 Splice Variant Expression; also: nearly all actives have a fitted effect of over 55% in size; as to activity change, positive = activation: % of control where 0% means no effect
# Settings: HEK293 SMN2-luciferase splicing reporter, luminescence, 30-36 h; activity change, positive = activation: at 46.1 µM (top of the series) unless noted
# Source text: NIH Chemical Genomics Center [NCGC] NIH Molecular Libraries Probe Production centers Network [MLPCN] MLPCN Grant: R03 MH084179-01 Assay Submitter (PI): Elliot Androphy NCGC Assay Overview: Spinal muscular atrophy (SMA) is caused by insufficient levels of the survival motor neuron protein SMN. The SMN locus on chromosome 5q13 contains two inverted copies of SMN called SMN1 and SMN2 which are 99% identical at the amino acid level. SMN1 is a fully functional protein and SMN2 skips exon 7 90% of the time. Skipping of exon 7 produces non-functional protein product. 10% of the SMN2 protein includes exon 7 and is fully functional. In the SMA disease state, mutations in the SMN1 locus are the cause of the disease state. Because only 10% of SMN2 is of the fully functional form, it is not sufficient to overcome the deficiency produced by the loss of the SMN1 product. A therapy that either increase the amount of SMN2 product made or to increase the inclusion of exon 7 has been proposed for the treatment of SMA. We have designed an assay to identify small molecules that can increase the amount of functional SMN2 product by appending a luciferase reporter gene after the native SMN2 gene, such that inclusion of exon 7 in the expressed product places the luciferase sequence in frame, thus generating functional luciferase enzyme.
# NCGC Assay Protocol Summary: This screen utilizes a luciferase reporter gene assay, combining the promoter and splicing based cassettes in tandem with the major portion of the native SMN2 cDNA, and then transfected into HEK293 cells. Compounds that increase luciferase signal presumably enhance expression of the functional SMN2 splice variant. Passaging media contained DMEM w/ glutamax (+phenol red) 10% FCS, 1x pen/strep, 200 ug/ml hygro, 1x sodium pyruvate. Assay media contained DMEM w/ glutamax (-phenol red) 10% FCS, 1x pen strep, 1x pyruvate Sequence, Parameter, Value, Description (1) Cells, […], 2000 cells/well, 1536 TC treated White solid bottom plate (2) Time, 10-12 hours, 37C 5% CO2 (3) Compound, 23 nl, MLSMR Library (4) Control Compound, 23 nL, Sodium butyrate st 4.5mM (final) conc (5) Time, 30-36 hours, 37C 5% CO2 (6) Reagent, 3 ul, One Glo (TM) from Promega (7) Time, 5-15 minutes, Room temp (8) Detector, Viewlux: luminescent read, 60 second integration, high speed 2x binning Keywords: Spinal muscular atrophy, SMA, SMN2, high throughput screening, MLSMR, MLPCN, NIH Roadmap, qHTS and NCGC
# Potency is read from the fitted curve at half-maximal effect.
Structure (SMILES),"activity change, positive = activation",Potency
C=CCNC(=O)NC(=O)COC(=O)/C(C#N)=C/c1cc(C)n(CC(C)C)c1C,-37.2%,–
CCN1CCCc2cc(CN(CCN3CCOCC3)C(=S)Nc3ccc(OC)cc3)ccc21,-0.499%,–
COc1ccc(C(=O)C[n+]2ccccc2C)cc1,-46.7%,–
CCCSc1ncc(Cl)c(C(=O)N2CCN(c3ccc(OC)cc3)CC2)n1,inactive: -32.9%,–
O=C(O)C[C@H](NC(=O)CP(=O)(O)O)C(=O)O.[NH-][C@@H]1CCCC[C@@H]1[NH-].[Pt],–,active: 2.51 µM
CCCCN1C(=O)c2ccc(C(=O)NC3=NCCS3)cc2C1=O,34%,–
COc1ccc(/C=C/c2nnc(NC(=O)COc3ccc(C)cc3)s2)cc1,–,active: 5.01 µM
c1ccc2c(c1)CCN(c1ncnc3c1[nH]c1ccccc13)C2,-74.5%,–
C/C(=C\C(=O)c1ccccc1)Nc1ccc(O)cc1,47.9%,–
COc1ccc(Cc2nc(C(=O)Nc3ccc(F)cc3)cs2)cc1,inactive: -32%,–
CCOC(=O)c1cnn(-c2ccccn2)c1N,53.8%,–
COc1cc2[nH]c(=S)nc(NCCCOC(C)C)c2cc1OC,-54.2%,–
CCCn1c(CC)nc([N+](=O)[O-])c1Sc1ccc(F)cc1,-43.5%,–
COc1ccc(-c2csc(-n3ncc(-c4ccccn4)c3N)n2)cc1,inactive: -52%,–
O=C(COc1ccccc1)Nc1nc(-c2ccc(S(=O)(=O)N3CCOCC3)cc2)cs1,inactive: -38.1%,–
COC(=O)Cc1ccc(N(Cc2ccccc2F)S(=O)(=O)c2ccc(C)cc2)cc1,-33.5%,–
COc1ccc(CCNC(=O)C(=O)NCC2OCCN2S(=O)(=O)c2ccc(Br)cc2)cc1 (centres undefined),-79.2%,–
O=C(CCCC(=O)N(CC(=O)NC1CCCCC1)Cc1ccccc1)Nc1ccccn1,38.6%,–
Cc1csc(NC(=O)CSc2nncn2C)n1,35.6%,–
Nc1cc(-c2nc3ncccc3o2)ccc1Cl,–,active: 10 µM
Oc1ccccc1C1Nc2cccc3cccc(c23)N1,-44.7%,–
Cc1cc(C)nc(SCC(=O)Nc2ncc(Cc3cccc(Cl)c3Cl)s2)n1,-29.5%,–

Structure (SMILES),"activity change, positive = activation",Potency
CC(=O)C1=C(c2ccc(Br)cc2)C(=O)c2ccccc2C1=O,inactive: -109%,–
COC(=O)c1ccccc1NC(=O)COC(=O)c1cccnc1,33.5%,–
CCC1CN(C(=O)Nc2ccc(C)cc2)c2cc(C)ccc2O1 (centres undefined),inactive: -32%,–
COc1ccccc1/C=C/C(=O)c1ccc(NC(C)=O)cc1,-31.5%,–
CCOC(=O)c1sc(NC(=O)CSc2n[nH]c(-c3ccncc3)n2)c(C#N)c1C,-30.5%,–
Cc1nn(S(=O)(=O)c2ccc(Cl)cc2)c(C)c1Sc1ccc([N+](=O)[O-])cc1,-65.6%,–
Cc1ccc(NC(=O)CN(c2ccccc2)S(=O)(=O)N(C)C)cc1Cl,inactive: -33%,–
COCCCN1C(=O)CC(C(=O)OC)=C1C,-38.3%,–
Cc1ccc(COc2cccc3c2CCN(Cc2ccc(F)cc2)C3=O)cc1,-63.8%,–
Cc1nn(-c2ccccc2C(=O)O)c(=O)c2ccccc12,31%,–
COC(=O)CSc1nnc(-c2sc3cc(OC)ccc3c2Cl)n1C,44.5%,–
COc1ccc(S(=O)(=O)Nc2ccccn2)c(C)c1C,-38.5%,–
O=C(N=Nc1c(O)[nH]c2ccc(Br)cc12)c1cc(-c2cccs2)nc2ccccc12,inactive: -67.7%,–
CN(C(=O)c1ccc2c(Cl)c3c(nc2c1)CCC3)c1ccccc1,61.5%,–
CC(C)c1ccc(NC(=O)COC(=O)C2=COCCO2)cc1,44%,–
Cc1ccc(-c2nn(C(C)(C)C)c3ncnc(N)c23)cc1,37.7%,–
C(=C\c1ccccc1)/CN1CCN(c2ncnc3c2oc2ccccc23)CC1,-46.4%,–
CN(C=C1C(=O)CC(C)(C)CC1=O)CCN1CCNCC1,23.2%,–
CC(=O)OCc1cc(=O)n(C)c(=O)n1C,47.1%,–
Cc1cccc(-c2c3c(=O)n(C)c(=O)n(C)c3cn2C2CCCCC2)c1,-50.3%,–
CCN=c1sc(C(=O)OC)cc(=O)n1CC,23.9%,–
CCCC(=O)O[C@]1(C(=O)CCl)[C@@H](C)C[C@H]2[C@@H]3CCC4=CC(=O)C=C[C@]4(C)[C@@]3(F)C(=O)C[C@@]21C,inactive: -62.9%,–

Structure (SMILES),"activity change, positive = activation",Potency
COc1ccc(NC(=O)/C(C#N)=C\c2cc(C)n(-c3ccc(Oc4ccc([N+](=O)[O-])cn4)cc3)c2C)cc1,inactive: -55.8%,–
O=CN1CCC(=O)N(Cc2ccccc2)c2ccccc21,40.6%,–
CC(=O)c1c(C)nc2ccccn12,32.6%,–
O=C(CCc1nc2ccccc2c(=O)[nH]1)N1CCN(C/C=C/c2ccccc2)CC1,-41%,–
CCOc1ccc(C(=O)Nc2ccccc2C#N)cc1[N+](=O)[O-],-41.5%,–
CCc1ccccc1NC(=O)Nc1cc(F)ccc1F,inactive: -35.4%,–
N#C/C(=C\c1ccc2c(c1)OCCO2)C(=O)NC1CCCCC1,104%,–
CCN(CC)c1ccc2cc(-c3nnc(-c4ccncc4)o3)c(=O)oc2c1,–,active: 11.2 µM
CCCN1Cc2cccc(C(=O)Nc3ccc4c(c3)OCO4)c2C1=O,46.3%,–
N#CC1=C(SCc2ccccc2)NC(=O)C(C#N)C12CCCC2 (centres undefined),-117%,–
CN1C(=O)CSc2ccc(NC(=O)N3CCc4ccccc43)cc21,42.2%,–
O=S(=O)(c1ccccc1)N1CCC2(CC1)CN(c1ccccn1)C2,inactive: -44.3%,–
CCCCOc1nc2ccccc2nc1C(C#N)S(=O)(=O)c1ccccc1 (centres undefined),-66.2%,–
O=C(CN1CCN(Cc2ccc3c(c2)OCO3)CC1)Nc1cc(S(=O)(=O)N2CCCC2)ccc1Cl,inactive: -58%,–
FC(F)(F)c1ccccc1NC(=S)N1CCN(Cc2ccc3c(c2)OCO3)CC1,-49.1%,–
O=C(Cc1ccccc1)N/N=C/c1ccc([N+](=O)[O-])s1,-59.3%,–
Cc1cc(C#N)c2ccccc2n1,28.8%,–
O=C(Nc1ccc(Oc2ccccc2)cc1)c1cnc2n(c1=O)CCS2,inactive: -108%,–
CCOC(=O)/C(C#N)=C/c1cc(C)n(-c2ccccc2)c1C,inactive: -73.4%,–
CC(C)Oc1ccccc1-c1nc(SCC(=O)O)n[nH]1,21.7%,–
O=C(CSc1nnc(-c2cccs2)o1)N1CCCCC1,–,active: 12.6 µM
O=S(=O)(c1ccc(Cl)c(NC(=S)N/N=C/c2ccc(O)cc2)c1)N1CCOCC1,inactive: -62.8%,–

# Copied from the listing for reference:
Structure (SMILES),"activity change, positive = activation",Potency
FC(F)(F)c1ccccc1NC(=S)N1CCN(Cc2ccc3c(c2)OCO3)CC1,-49.1%,–
O=C(Cc1ccccc1)N/N=C/c1ccc([N+](=O)[O-])s1,-59.3%,–

# Arranged by SMILES length (low to high): some entries from above.
Structure (SMILES),"activity change, positive = activation",Potency
COCCCN1C(=O)CC(C(=O)OC)=C1C,-38.3%,–
N#C/C(=C\c1ccc2c(c1)OCCO2)C(=O)NC1CCCCC1,104%,–
Cc1ccc(NC(=O)CN(c2ccccc2)S(=O)(=O)N(C)C)cc1Cl,inactive: -33%,–

# Additional structures:

Structure (SMILES),"activity change, positive = activation",Potency
CCC(C)c1ccc2oc(-c3ccc(NC(=O)Cn4cnc5c(=O)n(C)c(=O)n(C)c54)cc3)nc2c1 (centres undefined),inactive: -48%,–
CNc1nc(-c2ccccn2)nnc1-c1ccccc1,inactive: -89.5%,–
Cc1cc(C)nc(N2CCC(C(=O)NCC3CCCCC3)CC2)n1,5.08%,–
O=C(Nc1ccc(F)c(F)c1)NC1CCCCC1,–,active: 4.47 µM
COc1cc2ccccc2cc1C(=O)O,42.2%,–
CCOc1ccccc1-n1c(SCC(N)=O)nnc1-c1cccnc1,34.3%,–
Cc1ccccc1CN1CCN(C(=O)c2cccc(F)c2)CC1,31.4%,–
Cc1nnc(NC(=O)CCCN2C(=O)c3ccccc3C2=O)s1,33%,–
Cc1cccnc1Nc1nc(-c2ccc(O)cc2)cs1,–,active: 25.1 µM
COc1ccc(-c2cc(C(=O)c3c(N)n(C)c(=O)n(C)c3=O)c3ccccc3n2)cc1OC,195%,–
COc1cc(OC)cc(C(=O)NCC(=O)OCc2nc3ccccc3s2)c1,135%,–
CC(C(=O)NC1CCCC1)N(C(=O)c1ccc(-c2ccccc2)[nH]1)c1ccccc1F (centres undefined),-42.7%,–
CCOc1ccc2[nH]c3c(N4CCN(c5ccccn5)CC4)ncnc3c2c1,inactive: -38.8%,–
Cc1cc2cc(CCNC(=O)c3cccs3)c(=O)[nH]c2cc1C,–,active: 12.6 µM
COc1ccc(-n2ncc3c(N4CCCCC4)ncnc32)cc1,inactive: -111%,–
O=C(Nc1ccc(CN2CCOCC2)cc1)c1ccc(-c2ccc(Br)cc2)o1,inactive: -59.6%,–
O=C1Nc2ccccc2/C1=N\N=C\C1=C(N2CCOCC2)C(=C\c2ccccc2)/CC1,-39.3%,–
CCCCC1(C)OC(=O)C(=Cc2ccc(SC)cc2)C(=O)O1 (centres undefined),1.98%,–
CCN(CC)c1ccc(/C=N/NC(=O)c2ccc(Br)o2)cc1,–,active: 11.2 µM
CCc1ccc(Oc2cc(C)nc(N)n2)cc1,–,active: 10 µM
COC(=O)c1cccc(NC(=O)CCc2ccccc2)c1,51.1%,–
CCOC(=O)C1CCN(C(=O)c2oc3ccc(S(=O)(=O)N4CC(C)CC(C)C4)cc3c2C)CC1 (centres undefined),inactive: -30.1%,–

Structure (SMILES),"activity change, positive = activation",Potency
N/C(=N\OC(=O)CCC1CCCC1)c1ccc([N+](=O)[O-])cc1,-44.7%,–
CCOC(=O)CSC1=NC(=O)/C(=C\c2ccc(Cl)cc2)S1,-72.6%,–
Cc1cnc(NC(=O)c2sc3ccccc3c2Cl)s1,–,active: 1 µM
O=C(Oc1c(CN2CCOCC2)cc(Cl)c2cccnc12)c1ccccc1,inactive: -86.2%,–
COc1ccc(OC)c(C(O)c2coc3ccc(O)c(CN(C)C)c23)c1 (centres undefined),36.6%,–
Cc1ccc(-c2nnc(-c3ccc(Br)cc3)o2)o1,–,active: 12.6 µM
Cc1ccc(S(=O)(=O)n2nc(-c3ccco3)nc2SCc2ccccc2)cc1,–,active: 15.8 µM
CCCCC(=O)Nc1ccc(NC(=O)c2ccccc2OC)cn1,35.9%,–
Cc1ccc(S(=O)(=O)Nc2ccc(Br)cc2C(NCC(=O)O)c2ccccc2)cc1 (centres undefined),65%,–
COc1ccc(CN2COc3ccc4c(-c5ccccc5)cc(=O)oc4c3C2)cc1,45.9%,–
O=C1CCN(C(=O)c2ccccc2)C2CCCCC12 (centres undefined),32.3%,–
O=C(c1ccc(Br)cc1)c1cc([N+](=O)[O-])ccc1N1CCCCC1,-33.9%,–
CCOC(=O)C1CCCN(C(=O)c2cc(-c3ccccc3)on2)C1 (centres undefined),–,active: 22.4 µM
Cc1cc(C(=O)CCl)c(C)n1-c1cccc(S(=O)(=O)N2CCOCC2)c1,inactive: -43.6%,–
CCOC(=O)C1CCCN(CCC(=O)Nc2ccc3c(c2)CCC3)C1 (centres undefined),34%,–
COc1ccc(C(=O)Nc2nc3ccc(S(C)(=O)=O)cc3s2)cc1OC,31.7%,–
O=C(NNC(=O)C1CC1c1ccccc1)c1cccc([N+](=O)[O-])c1 (centres undefined),12.8%,–
Cc1cnc(NC(=O)c2cncc(Br)c2)s1,283%,–
CO/N=C/C(C#N)=C/c1ccc(OC)cc1,58.9%,–
Cc1ccc(SCCC(=O)OCC(=O)NCC2CCCCC2)cc1,32.1%,–
Cc1ccc(S(=O)(=O)N[C@@H](Cc2ccccc2)C(=O)CCl)cc1,–,inactive
